This passage reports vesicle damage results from the supplement of paper PMC4256282, “Profound Activity of the Anti-cancer Drug Bortezomib against Echinococcus multilocularis Metacestodes Identifies the Proteasome as a Novel Drug Target for Cestodes” (PLoS Neglected Tropical Diseases, 2014).

Where a name gives a salt, the structure may show the parent alone. The list shows a part of the results. Single values are uncertain, as repeats are few or missing.

The experiment concerns Echinococcus multilocularis metacestodes. As to the kind of experiment: vesicle damage (PGI release) relative to positive control DB1127 at 20 µM, DMSO subtracted; higher = more parasite damage. The conditions noted are these: treatment time 5 days. The protocol: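 In vitro-cultured E. multilocularis metacestode vesicles (isolate H95, 2-4 mm) were treated in singlets with each drug of the Selleck FDA-approved library (426 drugs) at 20 µM for 5 days at 37°C. Damage was read as phosphoglucose isomerase (PGI) release into the medium, measured as the increase in absorbance at 340 nm. Activity was expressed as % of the positive control DB1127 (20 µM) after subtracting the DMSO control; a hit was defined as ≥50% of DB1127.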
Regarding `CCC(=O)NCC[C@@H]1CCc2ccc3c(c21)CCO3` [Ramelteon], the vesicle damage is -3.37%.

As to `CN(C)CC/C=C1/c2ccccc2COc2ccc(CC(=O)O)cc21` [Olopatadine hydrochloride], the vesicle damage was -0.381%. As to `O=C1CCC(N2C(=O)c3ccccc3C2=O)C(=O)N1` (stereo not given) [Thalidomide], the vesicle damage is -0.494%. Take `N#CC1(c2ccc(NC(=O)c3cccnc3NCc3ccncc3)cc2)CCCC1` [Apatinib]: the vesicle damage stood at 2.22%. Turning to `CC(C)(C)NCC(O)c1ccc(O)c(CO)c1` (stereo not given) [Salbutamol sulfate], the vesicle damage came out at 1.85%.

As to `Nc1ncnc2c1ncn2[C@@H]1O[C@H](CO)[C@@H](O)[C@@H]1O` [Vidarabine], the vesicle damage was 0%.

Consider `CO[C@H]1O[C@@H]2O[C@@]3(C)CC[C@H]4[C@H](C)CC[C@@H]([C@H]1C)[C@@]24OO3` [Artemether], for which the vesicle damage is -0.529%. On to `CC(C(=O)O)c1cccc(Oc2ccccc2)c1` (stereo not given) [Fenoprofen calcium], for which the vesicle damage turned out to be 4.35%.

As for `C[C@@H](NCCCc1cccc(C(F)(F)F)c1)c1cccc2ccccc12` [Cinacalcet hydrochloride], the vesicle damage worked out at 22.8%. To `CC[N+](CC)(CC)CCOc1cccc(OCC[N+](CC)(CC)CC)c1OCC[N+](CC)(CC)CC` [Gallamine triethiodide] belongs 2.67%; to `O=c1[nH]cnc2[nH]ncc12` [Allopurinol sodium], -1.08%. With `CNC[C@@H](O)c1ccc(O)c(O)c1` [L-Adrenaline], the vesicle damage amounted to 0.392%. `C[C@H]1COc2c(N3CCN(C)CC3)c(F)cc3c(=O)c(C(=O)O)cn1c23` [Levofloxacin]: the vesicle damage is -6.02%.

Consider `C[C@]12CCC(=O)C=C1CC[C@@H]1[C@@H]2[C@@H](O)C[C@@]2(C)[C@H]1CC[C@]2(O)C(=O)CO` [Hydrocortisone], for which the vesicle damage is -3.97%. In the case of `COc1cc2c(cc1OC)C(=O)C(CC1CCN(Cc3ccccc3)CC1)C2` (stereo not given) [Donepezil hydrochloride], the vesicle damage came to 2.56%. For `Nc1cc(N2CCCCC2)nc(N)[n+]1[O-]` [Minoxidil], the vesicle damage stood at 2.86%.

Take `CCOC(=O)O[C@]1(C(=O)OCCl)CC[C@H]2[C@@H]3CCC4=CC(=O)C=C[C@]4(C)[C@H]3[C@@H](O)C[C@@]21C` [Loteprednol Etabonate]: the vesicle damage was -1.1%.

In the case of `COc1cc2c(cc1Cc1cccc(Cl)c1F)c(=O)c(C(=O)O)cn2[C@H](CO)C(C)C` [Elvitegravir], the vesicle damage was 5.66%. `CN(N=O)C(=O)N[C@@H](C=O)[C@@H](O)[C@H](O)[C@H](O)CO` [Streptozotocin]: the vesicle damage came to 2.85%. Under `C=C1c2cccc(O)c2C(=O)C2=C(O)[C@]3(O)C(=O)C(C(N)=O)=C(O)[C@@H](N(C)C)[C@@H]3[C@@H](O)[C@H]12` [Methacycline hydrochloride] stands 5.25%. Turning to `CN(C)c1nc(N(C)C)nc(N(C)C)n1` [Altretamine], the vesicle damage came to 0.123%. Regarding `CCCC1O[C@@H]2C[C@H]3[C@@H]4CCC5=CC(=O)C=C[C@]5(C)[C@H]4[C@@H](O)C[C@]3(C)[C@]2(C(=O)CO)O1` (stereo not given in full) [Budesonide], the vesicle damage was determined as 2.83%. In the case of `COC(=O)C1=C(C)NC(C)=C(C(=O)OCCN2CCN(C(c3ccccc3)c3ccccc3)CC2)C1c1cccc([N+](=O)[O-])c1` (stereo not given) [Manidipine dihydrochloride], the vesicle damage is -1.04%. As to `CN1C2CCCC1CC(NC(=O)c1nn(C)c3ccccc13)C2` (stereo not given) [Granisetron Hydrochloride], the vesicle damage was 0.95%. Regarding `CC1=C(/C=C/C(C)=C/C=C/C(C)=C\C(=O)O)C(C)(C)CCC1` [Isotretinoin], the vesicle damage was -3.63%. To `COc1ccccc1OCC(O)CN1CCN(CC(=O)Nc2c(C)cccc2C)CC1` (stereo not given) [Ranolazine] belongs -6.2%. In the case of `NS(=O)(=O)c1cc2c(cc1Cl)NCNS2(=O)=O` [Hydrochlorothiazide], the vesicle damage is -10.7%. For the compound `C[C@]12C=CC(=O)C=C1CC[C@@H]1[C@@H]2[C@@H](O)C[C@@]2(C)[C@H]1CC[C@]2(O)C(=O)CO` [Prednisolone], the vesicle damage was -13.3%.

For the compound `CC(=O)NC[C@H]1CN(c2ccc(N3CCOCC3)c(F)c2)C(=O)O1` [Linezolid], the vesicle damage was -2.39%. Regarding `OC(CNCC(O)C1CCc2cc(F)ccc2O1)C1CCc2cc(F)ccc2O1` (stereo not given) [Nebivolol HCl], the vesicle damage is -6.68%. To `CCCCC(=O)O[C@]1(C(=O)CO)[C@@H](C)C[C@H]2[C@@H]3CCC4=CC(=O)C=C[C@]4(C)[C@@]3(F)[C@@H](O)C[C@@]21C` [Betamethasone valerate] belongs 9%; to `NC(=O)NO` [Hydroxyurea], -11.3%; to `COc1ccc2[nH]c([S@@+]([O-])Cc3ncc(C)c(OC)c3C)nc2c1` [Esomeprazole sodium], 3.38%.

As for `CN(C)CCOC(c1ccccc1)c1ccccc1` [Diphenhydramine hcl], the vesicle damage is -14.9%. Take `CCOc1nc2cccc(C(=O)OC(C)OC(=O)OC3CCCCC3)c2n1Cc1ccc(-c2ccccc2-c2nn[nH]n2)cc1` (stereo not given) [Candesartan cilexetil]: the vesicle damage amounted to 102%. Take `C#C[C@]1(O)CC[C@H]2[C@@H]3CCc4cc(O)ccc4[C@H]3CC[C@@]21C` [Ethinyl estradiol]: the vesicle damage turned out to be 0.73%. As for `NNC(=O)c1ccncc1` [Isoniazid], the vesicle damage worked out at 0.0915%.

For the compound `O=c1n(CCCN2CCN(c3cccc(Cl)c3)CC2)nc2ccccn12` [Trazodone hydrochloride], the vesicle damage was found to be 2.01%. As to `CCCCNc1cc(C(=O)O)cc(S(N)(=O)=O)c1Oc1ccccc1` [Bumetanide], the vesicle damage came out at 6.18%. Take `Nc1nc(=O)n([C@@H]2CS[C@H](CO)O2)cc1F` [Emtricitabine]: the vesicle damage is -3.96%.
